Data: PMC5713318
Results are given in words; binding and its absence hold for the method and conditions named. Binding seen in cells or lysates may run through a third protein. Some results given as binding are weak or reduced against the parent protein; the word gives no strength.

By UniProt entry, the sequences of proteins in these tests, tags left out.
UniProt P19793: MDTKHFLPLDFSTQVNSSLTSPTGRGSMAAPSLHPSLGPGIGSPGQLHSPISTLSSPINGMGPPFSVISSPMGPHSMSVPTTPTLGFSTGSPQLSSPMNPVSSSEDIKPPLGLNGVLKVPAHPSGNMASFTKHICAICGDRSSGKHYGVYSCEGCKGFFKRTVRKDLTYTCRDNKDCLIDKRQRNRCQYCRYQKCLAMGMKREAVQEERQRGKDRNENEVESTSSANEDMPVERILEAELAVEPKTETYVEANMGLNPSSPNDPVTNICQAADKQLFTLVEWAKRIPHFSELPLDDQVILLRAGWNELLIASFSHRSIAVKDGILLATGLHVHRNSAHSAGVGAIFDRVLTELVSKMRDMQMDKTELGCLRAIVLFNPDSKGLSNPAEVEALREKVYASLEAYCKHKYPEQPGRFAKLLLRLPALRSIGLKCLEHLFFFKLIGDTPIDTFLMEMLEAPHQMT

Target: Retinoid x receptor α (human (endogenous in visceral adipose tissue)) (UniProt P19793)
Test: co-IP; nuclear extracts (100 ug) of VAT from LIR-MO and HIR-MO subjects, tissue incubated with 1,25(OH)2D3 (10 uM); precipitated with rat antihuman RXR antibody (rat IgG as control) 20 h at 4 °C, protein G plus/protein A-agarose; blot with anti-VDR

- binding: binds
B1: vitamin D receptor (protein, UniProt P11473 1-427)
chain: MEAMAASTSLPDPGDFDRNVPRICGVCGDRATGFHFNAMTCEGCKGFFRRSMKRKALFTCPFNGDCRITKDNRRHCQACRLKRCVDIGMMKEFILTDEEVQRKREMILKRKEEEALKDSLRPKLSEEQQRIIAILLDAHHKTYDPTYSDFCQFRPPVRVNDGGGSHPSRPNSRHTPSFSGDSSSSCSDHCITSSDMMDSSSFSNLDLSEEDSDDPSVTLELSQLSMLPHLADLVSYSIQKVIGFAKMIPGFRDLTSEDQIVLLKSSAIEVIMLRSNESFTMDDMSWTCGNQDYKYRVSDVTKAGHSLELIEPLIKFQVGLKKLNLHEEEHVLLMAICIVSPDRPGVQDAALIEAIQDRLSNTLQTYIRCRHPPPGSHLLYAKMIQKLADLRSLNEEHSKQYRCLSFQPECSMKLTPLVLEVFGNEIS
